Measured values as given in publication doi:10.1101/2021.07.16.452648.
Results are given in words; binding and its absence hold for the method and conditions named. Binding seen in cells or lysates may run through a third protein. These calls come from enrichment with a bait or labelling near it, and not all partners need be listed.

Chains of the proteins cited; added tags and fusions are not shown. Lines headed by an entry give the natural chain unless they say otherwise; changes in a name come on top. Residues count along the entry.
UniProt Q9H3Z4: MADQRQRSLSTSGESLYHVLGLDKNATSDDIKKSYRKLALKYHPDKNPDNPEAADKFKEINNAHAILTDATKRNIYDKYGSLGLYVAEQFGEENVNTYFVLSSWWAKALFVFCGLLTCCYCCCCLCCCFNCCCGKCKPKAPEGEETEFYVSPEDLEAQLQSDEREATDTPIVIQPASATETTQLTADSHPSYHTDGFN
UniProt P38646, residues 47-679: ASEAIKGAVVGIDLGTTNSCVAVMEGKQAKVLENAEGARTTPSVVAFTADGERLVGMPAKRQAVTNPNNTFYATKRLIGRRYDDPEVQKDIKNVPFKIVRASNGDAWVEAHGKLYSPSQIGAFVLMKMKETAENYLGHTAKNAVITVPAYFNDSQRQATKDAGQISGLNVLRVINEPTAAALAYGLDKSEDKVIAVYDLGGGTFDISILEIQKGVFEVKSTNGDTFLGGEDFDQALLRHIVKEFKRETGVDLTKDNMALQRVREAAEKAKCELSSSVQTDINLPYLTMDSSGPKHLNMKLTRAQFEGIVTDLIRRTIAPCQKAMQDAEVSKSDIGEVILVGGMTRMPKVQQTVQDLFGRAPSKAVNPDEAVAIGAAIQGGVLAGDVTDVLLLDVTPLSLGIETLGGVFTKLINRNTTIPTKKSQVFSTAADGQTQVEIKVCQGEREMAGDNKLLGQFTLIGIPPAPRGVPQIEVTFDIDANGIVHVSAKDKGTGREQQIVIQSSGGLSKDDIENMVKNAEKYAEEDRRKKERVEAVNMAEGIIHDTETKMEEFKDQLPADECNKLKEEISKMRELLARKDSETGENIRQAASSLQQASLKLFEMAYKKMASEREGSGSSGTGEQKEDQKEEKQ

Target: CSPα ΔJ-SBP-FLAG (UniProt Q9H3Z4)
Test: affinity purification with mass spectrometry

Substance | binding
CD98hc (endogenous) (from UniProt P08195 1-529) | binds
HSPA9 (endogenous) (from UniProt P38646 47-679) | binds
